Laboratory results: PubChem BioAssay AID1508597 (Cure First, 2020)

Assay: 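Knock-downs altering ovarian cancer cell survival with or without PARP inhibitor rucaparib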 (primary screen)
System: human ovarian carcinoma lines grown from tumours: OCI-P5x (papillary serous) and OCI-C5x (clear cell)
Reagents: siRNA pool against human genes, 1.25 pmol siRNA per well
Timing: 72 h or 96 h, depending on the cell culture
Conditions: rucaparib 20 µM (about IC30) or vehicle, present until read-out
Measured: 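Luminescent ATP-based viability assay read 72 or 96 h after transfection, depending on culture, given as normalised percent viability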
Reading the numbers: viability, normalised: higher = more viable cells remaining
Hit rule: 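Active when normalised viability falls below 80 percent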
Calls: active = viability under 80%; inactive = viability 80% or more
This is a random part of about 2,100 reagents. 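Calls flag viability under 80% in either arm, not effects specific to rucaparib; the reference for percent is not stated.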 Not given: the 100% reference.

RIGI (RNA sensor RIG-I), rucaparib or vehicle Rucaparib, cell line OCI-C5x (clear cell), technical replicate 1: viability, normalised (%) = 69.4; Call = active
RIGI (RNA sensor RIG-I), rucaparib or vehicle Rucaparib, cell line OCI-C5x (clear cell), technical replicate 2: viability, normalised (%) = 47.9; Call = active
RIGI (RNA sensor RIG-I), rucaparib or vehicle Rucaparib, cell line OCI-C5x (clear cell), technical replicate 3: viability, normalised (%) = 55.2; Call = active
RIGI (RNA sensor RIG-I), rucaparib or vehicle Rucaparib, cell line OCI-P5x (serous), technical replicate 1: viability, normalised (%) = 84.5; Call = inactive
RIGI (RNA sensor RIG-I), rucaparib or vehicle Rucaparib, cell line OCI-P5x (serous), technical replicate 2: viability, normalised (%) = 85.2; Call = inactive
RIGI (RNA sensor RIG-I), rucaparib or vehicle Rucaparib, cell line OCI-P5x (serous), technical replicate 3: viability, normalised (%) = 83.2; Call = inactive
RIGI (RNA sensor RIG-I), rucaparib or vehicle Vehicle, cell line OCI-C5x (clear cell), technical replicate 1: viability, normalised (%) = 47.7; Call = active
RIGI (RNA sensor RIG-I), rucaparib or vehicle Vehicle, cell line OCI-C5x (clear cell), technical replicate 2: viability, normalised (%) = 61.4; Call = active
RIGI (RNA sensor RIG-I), rucaparib or vehicle Vehicle, cell line OCI-C5x (clear cell), technical replicate 3: viability, normalised (%) = 48.1; Call = active
RIGI (RNA sensor RIG-I), rucaparib or vehicle Vehicle, cell line OCI-P5x (serous), technical replicate 1: viability, normalised (%) = 65.6; Call = active
RIGI (RNA sensor RIG-I), rucaparib or vehicle Vehicle, cell line OCI-P5x (serous), technical replicate 2: viability, normalised (%) = 105; Call = inactive
RIGI (RNA sensor RIG-I), rucaparib or vehicle Vehicle, cell line OCI-P5x (serous), technical replicate 3: viability, normalised (%) = 75.1; Call = active

Continued (2 carried over from the part before).
RIGI (RNA sensor RIG-I), rucaparib or vehicle Vehicle, cell line OCI-P5x (serous), technical replicate 2: viability, normalised (%) = 105; Call = inactive
RIGI (RNA sensor RIG-I), rucaparib or vehicle Vehicle, cell line OCI-P5x (serous), technical replicate 3: viability, normalised (%) = 75.1; Call = active
MED27 (mediator complex subunit 27), rucaparib or vehicle Rucaparib, cell line OCI-C5x (clear cell), technical replicate 1: viability, normalised (%) = 56.2; Call = active
MED27 (mediator complex subunit 27), rucaparib or vehicle Rucaparib, cell line OCI-C5x (clear cell), technical replicate 2: viability, normalised (%) = 38.8; Call = active
MED27 (mediator complex subunit 27), rucaparib or vehicle Rucaparib, cell line OCI-C5x (clear cell), technical replicate 3: viability, normalised (%) = 50.1; Call = active
MED27 (mediator complex subunit 27), rucaparib or vehicle Rucaparib, cell line OCI-P5x (serous), technical replicate 1: viability, normalised (%) = 43.4; Call = active
MED27 (mediator complex subunit 27), rucaparib or vehicle Rucaparib, cell line OCI-P5x (serous), technical replicate 2: viability, normalised (%) = 62; Call = active
MED27 (mediator complex subunit 27), rucaparib or vehicle Rucaparib, cell line OCI-P5x (serous), technical replicate 3: viability, normalised (%) = 50.9; Call = active
MED27 (mediator complex subunit 27), rucaparib or vehicle Vehicle, cell line OCI-C5x (clear cell), technical replicate 1: viability, normalised (%) = 50.8; Call = active
MED27 (mediator complex subunit 27), rucaparib or vehicle Vehicle, cell line OCI-C5x (clear cell), technical replicate 2: viability, normalised (%) = 36.5; Call = active
MED27 (mediator complex subunit 27), rucaparib or vehicle Vehicle, cell line OCI-C5x (clear cell), technical replicate 3: viability, normalised (%) = 73.5; Call = active
MED27 (mediator complex subunit 27), rucaparib or vehicle Vehicle, cell line OCI-P5x (serous), technical replicate 1: viability, normalised (%) = 53.2; Call = active
MED27 (mediator complex subunit 27), rucaparib or vehicle Vehicle, cell line OCI-P5x (serous), technical replicate 2: viability, normalised (%) = 60.8; Call = active
MED27 (mediator complex subunit 27), rucaparib or vehicle Vehicle, cell line OCI-P5x (serous), technical replicate 3: viability, normalised (%) = 68.6; Call = active
TAF5 (TATA-box binding protein associated factor 5), rucaparib or vehicle Rucaparib, cell line OCI-C5x (clear cell), technical replicate 1: viability, normalised (%) = 59.1; Call = active
TAF5 (TATA-box binding protein associated factor 5), rucaparib or vehicle Rucaparib, cell line OCI-C5x (clear cell), technical replicate 2: viability, normalised (%) = 62.7; Call = active
TAF5 (TATA-box binding protein associated factor 5), rucaparib or vehicle Rucaparib, cell line OCI-C5x (clear cell), technical replicate 3: viability, normalised (%) = 52.2; Call = active
TAF5 (TATA-box binding protein associated factor 5), rucaparib or vehicle Rucaparib, cell line OCI-P5x (serous), technical replicate 1: viability, normalised (%) = 53.4; Call = active
TAF5 (TATA-box binding protein associated factor 5), rucaparib or vehicle Rucaparib, cell line OCI-P5x (serous), technical replicate 2: viability, normalised (%) = 63.7; Call = active
TAF5 (TATA-box binding protein associated factor 5), rucaparib or vehicle Rucaparib, cell line OCI-P5x (serous), technical replicate 3: viability, normalised (%) = 52.8; Call = active
TAF5 (TATA-box binding protein associated factor 5), rucaparib or vehicle Vehicle, cell line OCI-C5x (clear cell), technical replicate 1: viability, normalised (%) = 49; Call = active
TAF5 (TATA-box binding protein associated factor 5), rucaparib or vehicle Vehicle, cell line OCI-C5x (clear cell), technical replicate 2: viability, normalised (%) = 51.7; Call = active
TAF5 (TATA-box binding protein associated factor 5), rucaparib or vehicle Vehicle, cell line OCI-C5x (clear cell), technical replicate 3: viability, normalised (%) = 41.9; Call = active
TAF5 (TATA-box binding protein associated factor 5), rucaparib or vehicle Vehicle, cell line OCI-P5x (serous), technical replicate 1: viability, normalised (%) = 62.2; Call = active
TAF5 (TATA-box binding protein associated factor 5), rucaparib or vehicle Vehicle, cell line OCI-P5x (serous), technical replicate 2: viability, normalised (%) = 69.3; Call = active
TAF5 (TATA-box binding protein associated factor 5), rucaparib or vehicle Vehicle, cell line OCI-P5x (serous), technical replicate 3: viability, normalised (%) = 68.8; Call = active
